Library screening results

The chains behind the UniProt entries cited, without tags or fusion partners.
UniProt E9BF75, entry or part of it: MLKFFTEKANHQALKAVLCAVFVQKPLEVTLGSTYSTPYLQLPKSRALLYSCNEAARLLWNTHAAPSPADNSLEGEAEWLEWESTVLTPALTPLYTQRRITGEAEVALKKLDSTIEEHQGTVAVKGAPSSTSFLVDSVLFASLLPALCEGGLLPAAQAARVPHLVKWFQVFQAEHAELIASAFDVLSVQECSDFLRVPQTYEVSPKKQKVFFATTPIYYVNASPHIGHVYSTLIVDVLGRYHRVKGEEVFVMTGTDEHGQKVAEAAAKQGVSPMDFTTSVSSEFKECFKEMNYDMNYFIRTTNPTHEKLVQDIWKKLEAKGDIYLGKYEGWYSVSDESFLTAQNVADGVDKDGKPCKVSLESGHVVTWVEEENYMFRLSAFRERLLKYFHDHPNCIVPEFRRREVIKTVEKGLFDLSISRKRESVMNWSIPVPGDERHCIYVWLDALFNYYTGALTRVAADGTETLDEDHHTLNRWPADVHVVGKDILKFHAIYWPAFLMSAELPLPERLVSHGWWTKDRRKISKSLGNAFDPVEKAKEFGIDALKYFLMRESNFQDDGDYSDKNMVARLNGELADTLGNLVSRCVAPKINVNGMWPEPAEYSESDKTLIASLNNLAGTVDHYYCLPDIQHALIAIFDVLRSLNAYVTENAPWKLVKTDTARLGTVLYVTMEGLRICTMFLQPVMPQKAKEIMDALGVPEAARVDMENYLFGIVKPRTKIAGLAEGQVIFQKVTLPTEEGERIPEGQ

Data taken from ChEMBL document CHEMBL3988442, “University of Dundee, Small-Polar-MMV Screening Library” (2021).

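Primary screen of methionyl-tRNA synthetase; the read-out is not stated. Target: Methionyl-tRNA synthetase (putative), Leishmania donovani (UniProt E9BF75). The test concentration is not given. The values are filed as inhibition. About 68,000 compounds were tested under these conditions; 0.035% (about 24) showed 50% or more at least once.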

Results are percentages, as filed.
The controls that fix the scale are not given in the record; negative values are as filed.
This is an unselected part of the compounds tested.

{"compound": "O=C1C(NCc2nnc3n2CCCC3)CCCN1c1cccc(F)c1", "stereo": "centres undefined", "Inhibition": 6.135}
{"compound": "Cc1sc2nc(CCN)nc(N3CCN(S(C)(=O)=O)CC3)c2c1C", "Inhibition": 18.26}
{"compound": "Cc1cccc(N2CCN(CCCNC(=O)c3nccn3C)CC2)c1", "Inhibition": 22.86}
{"compound": "O=C(Cc1ccc(O)cc1)N1CCCC(O)(CN2CCOCC2)CC1", "stereo": "centres undefined", "Inhibition": 16.46}
{"compound": "COc1c(C2CCCN2CC(=O)Nc2ccncc2)c(C)nn1C", "stereo": "centres undefined", "Inhibition": 10.12}
{"compound": "CC(=O)NCCNC(=O)c1cnc(-c2ccc(C)cc2C)s1", "Inhibition": 16.26}
{"compound": "CCC(c1nc(CC(C)C)nn1-c1ccccn1)n1cccn1", "stereo": "centres undefined", "Inhibition": 21.33}
{"compound": "COCCNC(=O)[C@H]1CN2CCC1C[C@@H]2Cn1cc(C(C)(C)C)nn1", "stereo": "some centres undefined", "Inhibition": 7.797}
{"compound": "CCc1c(C(=O)N2CC(C)OC(C)(C)C2)cnn1-c1ccccn1", "stereo": "centres undefined", "Inhibition": 9.524}
{"compound": "Cc1cc(CNC(=O)c2ccc(F)c(COCC3CC3)c2)no1", "Inhibition": 10.14}
{"compound": "O=C1CCC2(CCCN(C(=O)Cc3ccccn3)C2)N1", "stereo": "centres undefined", "Inhibition": 8.333}
{"compound": "O=C(O)c1ccc(=O)n(CC(c2ccc(F)cc2)N2CCCCCC2)c1", "stereo": "centres undefined", "Inhibition": 7.764}
{"compound": "CN(C)[C@H]1CCN(c2ccnc(C(=O)NCc3ccco3)c2)C1", "Inhibition": 16.72}
{"compound": "COCC(=O)N1CCN(Cc2cc(-c3ccncc3)nn2C)CC1", "Inhibition": 15.62}
{"compound": "COCCc1noc(-c2ccc(N[C@H]3CCCCNC3=O)nc2)n1", "Inhibition": 13.19}
{"compound": "CNc1ncc(CN(C)c2nc(C3CCCC3)nc3c2cnn3C)cn1", "Inhibition": 6.197}
{"compound": "Cc1cccc(C2(NC(=O)CCCn3cncn3)CCCC2)c1", "Inhibition": 14.29}
{"compound": "CS(=O)(=O)NCCCN1CCCC1c1ccsc1", "stereo": "centres undefined", "Inhibition": 20.56}
{"compound": "CC(C)COc1cncc(NCc2nnc3ccccn23)n1", "Inhibition": 15.32}
{"compound": "O=C(CN1CCOC1=O)N1CCc2nnc(-c3ccccc3)n2CC1", "Inhibition": 4.676}
{"compound": "CCN(CC)CC1CN(Cc2cccc(C#N)c2)Cc2nccn2C1", "stereo": "centres undefined", "Inhibition": 14.11}
{"compound": "Cc1ccc(-c2ccc(Cl)nn2)cc1S(=O)(=O)N1CCOCC1", "Inhibition": 9.524}
{"compound": "CS(=O)(=O)N1CCN(c2ccc3ccc(C(=O)NC4CC4)cn23)CC1", "Inhibition": 43.7}
{"compound": "Cn1cc(C2CCCN2Cc2csc(-c3ccccc3)n2)cn1", "stereo": "centres undefined", "Inhibition": 34.65}
{"compound": "Cc1ccc(C2CN(CCCS(=O)(=O)C(C)C)CCO2)c(C)c1", "stereo": "centres undefined", "Inhibition": 10.24}
{"compound": "CC1Cc2ccccc2N1Cc1occc1C(=O)OCC(N)=O", "stereo": "centres undefined", "Inhibition": 18.5}
{"compound": "Nc1cc(CCC2CN(Cc3ccc(C(=O)O)cc3)CCO2)ccn1", "stereo": "centres undefined", "Inhibition": 1.049}
{"compound": "CC(=O)NC1CCc2ccc(S(=O)(=O)NCc3ncccc3C)cc21", "stereo": "centres undefined", "Inhibition": -0.9524}